US20090068109A1 (Janssen / Centocor, published 2009)
These are yes or no findings as the source states them, for the method shown. Some entries that bind do so weakly or less than the wild type.

Chains of the proteins cited; added tags and fusions are not shown. Residues count along the entry.
UniProt P13500, residues 24-99: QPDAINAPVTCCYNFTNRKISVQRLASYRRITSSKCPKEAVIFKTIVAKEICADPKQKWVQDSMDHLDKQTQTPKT
UniProt P51671, residues 24-97: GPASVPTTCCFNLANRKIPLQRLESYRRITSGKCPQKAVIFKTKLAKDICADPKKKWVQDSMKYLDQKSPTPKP

Experiments:
[1] = molecular target: human MCP-1 (human, UniProt P13500 24-99); assay: Biacore specificity, captured Fab, 100 nM chemokine
[2] = molecular target: T1, human Eotaxin (human, UniProt P51671 24-97); assay: as above
T1 construct: also called Eotaxin-1; Eotaxin 1

[3] = molecular target: T2, cynomolgus monkey MCP-1 (cynomolgus monkey, UniProt P61274 24-99); assay: Biacore, Fab capture mode
T2 construct: also called cyno MCP-1; cyno CCL-2

[4] = molecular target: native human MCP-1 purified from PANC-1 cell supernatant (human) (UniProt P13500); assay: Biacore, Fab capture mode

binding [1]: binds
binding [2]: binds
binding [3]: binds
binding [4]: binds
B1: MOR03548 Fab (Fab, V domains shown)
VH: QVQLVESGGGLVQPGGSLRLSCAASGFTFRSYGMSWVRQAPGKGLEWVSNIRSDGSYTYYADSVKGRFTISRDNSKNTLYLQMNSLRAEDTAVYYCARFEFTPWTYFDFWGQGTLVTVSS
VL: DIELTQPPSVSVAPGQTARISCSGDNLGKKYVYWYQQKPGQAPVLVIYDDDNRPSGIPERFSGSNSGNTATLTISGTQAEDEADYYCQSYTAQSSASFGGGTKLTVL
notes: Parental HuCAL GOLD Fab with C-terminal FLAG and 6xHis tags
